Assay results from article PMC6763016 (PLoS ONE, 2019).

Test system: T1, α1-adrenoceptors of dorsal raphe serotonergic neurons
T1 construct: gene Adra1a
Conditions: competitive antagonist (inhibitory half-maximal concentration); 1 μM phenylephrine as agonist; 20 nM Way-100635 and synaptic blockers present; 34-36 °C; geometric mean of 15

O=c1n(CCCN2CCN(c3cccc(Cl)c3)CC2)nc2ccccn12 [Trazodone]
EC50: 1.99 µM
